Test results taken from ChEMBL document CHEMBL2321763, “The role of the acidity of N-heteroaryl sulfonamides as inhibitors of bcl-2 family protein-protein interactions” (ACS Med Chem Lett, 2013).

Assay: Solubility of compound in fasted state simulated intestinal fluid
Conditions: simulated gi fluid

In the case of `O=[N+]([O-])c1cc(S(=O)(=O)Nc2cccc3cc(N4CCN(Cc5ccccc5-c5ccc(Cl)cc5)CC4)ccc23)ccc1N[C@H](CCN1CCOCC1)CSc1ccccc1`, the solubility is reported as < 5 µM.
